# Where “and” joins values, the source holds several entries; their conditions need not be identical. Equal entries are not always repeated. Inconclusive means that the source gave no clear call. Such entries were picked first, then a sample of the others. Potencies of inconclusive entries are doubtful fits and often do not repeat. Some structures have more than one record in an assay (separate samples or runs), and their calls can disagree. Calls of active or inactive are those of the source. Rule for the calls: active = hit-call score of the fitted dose curve at least 0.9, where 1 is the maximum; inconclusive = response in the unintended direction; inactive = score below 0.9.
# Chains of the proteins cited; added tags and fusions are not shown. Lines headed by an entry give the natural chain unless they say otherwise; changes in a name come on top.
# UniProt Q07869: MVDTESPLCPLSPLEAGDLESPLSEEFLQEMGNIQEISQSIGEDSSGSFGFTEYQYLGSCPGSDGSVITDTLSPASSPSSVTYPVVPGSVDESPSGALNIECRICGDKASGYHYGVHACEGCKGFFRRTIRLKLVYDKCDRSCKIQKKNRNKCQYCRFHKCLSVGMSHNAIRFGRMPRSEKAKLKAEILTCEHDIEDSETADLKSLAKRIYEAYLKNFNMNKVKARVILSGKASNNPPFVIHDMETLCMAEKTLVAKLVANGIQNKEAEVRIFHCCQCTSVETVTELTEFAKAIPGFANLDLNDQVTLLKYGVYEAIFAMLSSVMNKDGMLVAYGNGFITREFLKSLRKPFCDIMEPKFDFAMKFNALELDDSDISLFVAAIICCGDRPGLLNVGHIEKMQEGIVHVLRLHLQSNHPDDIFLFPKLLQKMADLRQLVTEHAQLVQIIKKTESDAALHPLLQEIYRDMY
# UniProt Q03181: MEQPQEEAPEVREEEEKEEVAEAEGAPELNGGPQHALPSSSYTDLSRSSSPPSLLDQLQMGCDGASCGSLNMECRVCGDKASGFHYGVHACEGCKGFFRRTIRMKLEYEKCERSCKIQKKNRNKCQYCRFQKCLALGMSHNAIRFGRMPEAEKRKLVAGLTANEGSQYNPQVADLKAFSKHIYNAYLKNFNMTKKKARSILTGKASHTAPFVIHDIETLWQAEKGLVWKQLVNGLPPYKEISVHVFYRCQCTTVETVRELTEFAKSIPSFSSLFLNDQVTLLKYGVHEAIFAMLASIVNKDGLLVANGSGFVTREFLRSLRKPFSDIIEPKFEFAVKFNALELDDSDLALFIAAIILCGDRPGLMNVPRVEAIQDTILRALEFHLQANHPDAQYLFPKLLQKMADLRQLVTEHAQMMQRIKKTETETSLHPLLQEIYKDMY
# UniProt P10826, whole entry, looked up: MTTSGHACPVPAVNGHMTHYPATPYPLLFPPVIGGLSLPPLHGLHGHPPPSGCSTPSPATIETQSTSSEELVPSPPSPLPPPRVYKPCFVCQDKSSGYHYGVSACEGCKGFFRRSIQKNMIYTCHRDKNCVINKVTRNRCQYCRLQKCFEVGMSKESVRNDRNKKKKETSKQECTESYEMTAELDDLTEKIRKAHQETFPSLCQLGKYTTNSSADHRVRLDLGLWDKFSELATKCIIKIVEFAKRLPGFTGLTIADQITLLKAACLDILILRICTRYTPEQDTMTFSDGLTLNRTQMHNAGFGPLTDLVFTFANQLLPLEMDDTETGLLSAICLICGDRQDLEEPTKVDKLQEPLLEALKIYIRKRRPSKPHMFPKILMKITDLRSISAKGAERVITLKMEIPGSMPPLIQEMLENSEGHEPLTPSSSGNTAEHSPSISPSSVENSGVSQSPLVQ
# Target: human Peroxisome Proliferator-activated Receptor alpha (PPARa), PPARA (gene 5465) (UniProt Q07869)
# Assay: ATG_PPARa_TRANS: Attagene TRANS-FACTORIAL HepG2 Assay for human Peroxisome Proliferator-activated Receptor alpha (PPARa) (AID 2283001);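 for AC50: potency for gain of reporter signal over DMSO so agonist or activator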
# Procedure, shortened: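 Transient HepG2 transfection, GAL4-UAS reporters, NR-Gal4 chimeras; 24 h compound exposure. Readout: reporter transcripts by RT-PCR, 6-FAM primer extension, HpaI digest, capillary electrophoresis. Positive direction vs DMSO baseline.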
Structure (SMILES),AC50,outcome
Cn1ccnc1,inconclusive: 180 µM,–
c1ccc(B(c2ccccc2)c2ccccc2)cc1,inconclusive: 68.1 µM,–
OCCCS,inconclusive: 100 µM,–
CC(=O)OCCOC(C)=O,inconclusive: 100 µM,–
CCCOc1ccc(S(=O)(=O)N2CCN(CC)CC2)cc1-c1nc2c(CC)n(Cc3ccccn3)nc2c(=O)[nH]1,inconclusive: 16.6 µM,–
O=c1cccc[nH]1,inconclusive: 100 µM,–
CCN(Cc1cccnc1)C(=O)c1cccc(Cl)c1[C@]1(C)C(=O)N(Cc2ccc(OC)cc2OC)c2ccc(Cl)cc21,inconclusive: 16.2 µM,–
Cc1cc(CCN2CCN(c3nsc4ccccc34)CC2)cc2c1NC(=O)CC2(C)C,inconclusive: 11 µM,–
OC1CCCCCCCCCCC1,inconclusive: 28.5 µM,–
NCc1cccc(C2CCN(C(=O)c3ccc(C#Cc4ccccc4F)o3)CC2)c1,active: 0.909 µM,–
Cc1cc(C)c(C)c(C)c1,inconclusive: 178 µM,–
Cc1ccc(C(C)C)cc1,–,inactive
NC(=NCCCCCCN=C(N)/N=C(\N)Nc1ccc(Cl)cc1)/N=C(\N)Nc1ccc(Cl)cc1,–,inactive

Structure (SMILES),AC50,outcome
COc1cc([N+](=O)[O-])ccc1N,–,inactive
CC1(C)[C@H]2CC[C@]1(C)C(=O)C2,inconclusive: 100 µM,–
CCCCCC(C)O (centres undefined),inconclusive: 100 µM,–
CNC(=O)[C@H]1O[C@@H](n2cnc3c(NCc4cc(Cl)ccc4OCc4cc(C)no4)ncnc32)[C@H](O)[C@@H]1N,inconclusive: 0.009 µM,–
CC=CCO,–,inactive
CN(C)c1ccc(C(=C2C=CC(=[N+](C)C)C=C2)c2ccc(N(C)C)cc2)cc1,inconclusive: 3.02 µM,–
O=CC1CC1,inconclusive: 0.0823 µM,–
O=c1n(CCO)c(=O)n(CCO)c(=O)n1CCO,inconclusive: 0.0823 µM,–
OCC(CO)n1cnc(-c2ccc(F)cc2)c1-c1ccnc(Oc2ccccc2)n1,–,inactive
C=CCOCC(O)CO (centres undefined),inconclusive: 0.0823 µM,–
CCCC(C)CCC(C)=O (centres undefined),–,inactive
C=CC(=O)OCCC(F)(F)C(F)(F)C(F)(F)C(F)(F)F,–,inactive
CC=C1CC2C=CC1C2 (centres undefined),inconclusive: 19.8 µM,–
CC(CCC(=O)O)(c1ccc(O)cc1)c1ccc(O)cc1,–,inactive
FC(F)(F)COC(OCC(F)(F)F)OCC(F)(F)F,inconclusive: 150 µM,–

# Target: human Peroxisome Proliferator-activated Receptor delta (PPARd), PPARD (gene 5467) (UniProt Q03181)
# Assay: ATG_PPARd_TRANS: Attagene TRANS-FACTORIAL HepG2 Assay for human Peroxisome Proliferator-activated Receptor delta (PPARd) (AID 2283002)
# Procedure, shortened: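 HepG2 cells transiently transfected with GAL4-UAS multiplexed reporter units driven by exogenous chimeric NR-GAL4 proteins; 24 h compound exposure. Reporter mRNA measured by RT-PCR, 6-FAM primer extension, HpaI digestion and capillary electrophoresis; gain of signal fitted relative to DMSO.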
Structure (SMILES),AC50,outcome
Cn1ccnc1,inconclusive: 100 µM,–
OCCCS,inconclusive: 0.0823 µM,–
O=c1cccc[nH]1,inconclusive: 100 µM,–
O=C1c2ccccc2C(=O)c2cc(S(=O)(=O)O)ccc21,inconclusive: 100 µM,–
Cc1ccc(C(C)C)cc1,–,inactive
NC(=NCCCCCCN=C(N)/N=C(\N)Nc1ccc(Cl)cc1)/N=C(\N)Nc1ccc(Cl)cc1,active: 24.5 µM,–
COc1cc([N+](=O)[O-])ccc1N,inconclusive: 24.2 µM,–
CC1(C)[C@H]2CC[C@]1(C)C(=O)C2,inconclusive: 1.8 µM,–
CCCCCC(C)O (centres undefined),–,inactive
O=C(O)c1[nH]n(-c2ccc(S(=O)(=O)O)cc2)c(=O)c1N=Nc1ccc(S(=O)(=O)O)cc1,–,inactive
c1ccc2c(c1)ccc1ncccc12,–,inactive
CN(C)c1ccc(C(=C2C=CC(=[N+](C)C)C=C2)c2ccc(N(C)C)cc2)cc1,–,inactive
O=c1n(CCO)c(=O)n(CCO)c(=O)n1CCO,inconclusive: 7.72 µM,–
OCC(CO)n1cnc(-c2ccc(F)cc2)c1-c1ccnc(Oc2ccccc2)n1,inconclusive: 24.4 µM,–
OCCN1CN(CCO)CN(CCO)C1,–,inactive
CSC(=O)c1cccc2nnsc12,inconclusive: 0.359 µM,–
OCCCC(F)(F)C(F)(F)C(F)(F)C(F)(F)C(F)(F)C(F)(F)C(F)(F)F,inconclusive: 90.5 µM,–
CCCCCCCCn1sc(Cl)c(Cl)c1=O,–,inactive

# Target: human Retinoic Acid Receptor beta (RARb), RARB (gene 5915) (UniProt P10826)
# Assay: ATG_RARb_TRANS: Attagene TRANS-FACTORIAL HepG2 Assay for human Retinoic Acid Receptor beta (AID 2283004)
# Procedure, shortened: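 HepG2, transient MRTU transfection, NR–Gal4 chimera, 24 h treatment; RT-PCR plus CE fluorescence detection of reporter mRNA; gain of signal vs DMSO.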
Structure (SMILES),AC50,outcome
Cn1ccnc1,inconclusive: 181 µM,–
c1ccc(B(c2ccccc2)c2ccccc2)cc1,inconclusive: 100 µM,–
OCCCS,inconclusive: 100 µM,–
CCCOc1ccc(S(=O)(=O)N2CCN(CC)CC2)cc1-c1nc2c(CC)n(Cc3ccccn3)nc2c(=O)[nH]1,inconclusive: 100 µM,–
O=c1cccc[nH]1,–,inactive
CCN(Cc1cccnc1)C(=O)c1cccc(Cl)c1[C@]1(C)C(=O)N(Cc2ccc(OC)cc2OC)c2ccc(Cl)cc21,inconclusive: 100 µM,–
Cc1cc(CCN2CCN(c3nsc4ccccc34)CC2)cc2c1NC(=O)CC2(C)C,–,inactive
OC1CCCCCCCCCCC1,–,inactive
NCc1cccc(C2CCN(C(=O)c3ccc(C#Cc4ccccc4F)o3)CC2)c1,inconclusive: 8.43 µM,–
Cc1cc(C)c(C)c(C)c1,inconclusive: 99.5 µM,–
O=C1c2ccccc2C(=O)c2cc(S(=O)(=O)O)ccc21,inconclusive: 166 µM,–
Cc1ccc(C(C)C)cc1,–,inactive
COc1cc([N+](=O)[O-])ccc1N,inconclusive: 100 µM,–

Structure (SMILES),AC50,outcome
CC1(C)[C@H]2CC[C@]1(C)C(=O)C2,–,inactive
CCCCCC(C)O (centres undefined),–,inactive
CC=CCO,–,inactive
c1ccc2c(c1)ccc1ncccc12,–,inactive
CN(C)c1ccc(C(=C2C=CC(=[N+](C)C)C=C2)c2ccc(N(C)C)cc2)cc1,–,inactive
O=c1n(CCO)c(=O)n(CCO)c(=O)n1CCO,–,inactive
CSC(=O)c1cccc2nnsc12,inconclusive: 0.0736 µM,–
CCCC(C)CCC(C)=O (centres undefined),–,inactive
C=CC(=O)OCCC(F)(F)C(F)(F)C(F)(F)C(F)(F)F,inconclusive: 55.8 µM,–
CC=C1CC2C=CC1C2 (centres undefined),inconclusive: 158 µM,–
OCCCC(F)(F)C(F)(F)C(F)(F)C(F)(F)C(F)(F)C(F)(F)C(F)(F)F,inconclusive: 81.8 µM and inconclusive: 74 µM,–
CCCCCCCCn1sc(Cl)c(Cl)c1=O,inconclusive: 2.2 µM,–
O=Cc1ccccc1O,inconclusive: 32.8 µM,–
CC(CCC(=O)O)(c1ccc(O)cc1)c1ccc(O)cc1,inconclusive: 0.0102 µM,–
FC(F)(F)COC(OCC(F)(F)F)OCC(F)(F)F,inconclusive: 150 µM,inactive
